Measured values reported in paper PMC9144539.
No constants are given. Whether binding was seen depends on the method and setting. A result given as binding can be weak or reduced; the word gives no strength. Sequences can lack the tags named with a protein.

Experiments:
[1] = molecular target: T1, GAL4 binding domain fusion of ABI5 (Arabidopsis) (UniProt Q9SJN0); assay: two-hybrid; GAL4 AD fusions (pACT2lox) and GAL4 BD fusions; matings between haploid yeast lines, replica-plated on selective media; growth on -HALW shows activation of the HIS3 and ADE2 reporters
T1 sequence: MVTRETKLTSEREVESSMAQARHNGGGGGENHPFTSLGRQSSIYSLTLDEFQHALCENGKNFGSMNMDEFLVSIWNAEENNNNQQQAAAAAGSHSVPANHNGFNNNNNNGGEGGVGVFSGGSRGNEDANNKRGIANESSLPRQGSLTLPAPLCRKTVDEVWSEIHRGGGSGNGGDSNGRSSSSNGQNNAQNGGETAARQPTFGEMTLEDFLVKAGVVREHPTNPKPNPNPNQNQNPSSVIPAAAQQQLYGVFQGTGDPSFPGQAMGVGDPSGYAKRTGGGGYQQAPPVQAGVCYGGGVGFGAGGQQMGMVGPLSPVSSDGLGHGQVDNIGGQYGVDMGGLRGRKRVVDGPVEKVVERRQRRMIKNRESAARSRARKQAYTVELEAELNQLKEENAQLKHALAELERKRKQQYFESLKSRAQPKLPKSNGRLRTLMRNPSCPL

[2] = molecular target: T2, GAL4 binding domain fusion of AFP1 (ABI5-binding protein 1) (Arabidopsis) (UniProt Q9LQ98); assay: as above
T2 sequence: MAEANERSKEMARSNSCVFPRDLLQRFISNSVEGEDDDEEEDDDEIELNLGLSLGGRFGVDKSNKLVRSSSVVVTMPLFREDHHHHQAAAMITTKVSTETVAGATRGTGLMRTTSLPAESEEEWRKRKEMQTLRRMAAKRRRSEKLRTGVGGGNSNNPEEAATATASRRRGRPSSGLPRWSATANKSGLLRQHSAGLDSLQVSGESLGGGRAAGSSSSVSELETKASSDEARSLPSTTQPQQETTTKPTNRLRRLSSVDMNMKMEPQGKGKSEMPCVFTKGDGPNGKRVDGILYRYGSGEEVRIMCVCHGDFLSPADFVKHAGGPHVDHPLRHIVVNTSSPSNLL

- binding [1]: binds
- binding [2]: binds
Substance: GAL4 activation domain fusion of RGL3 (AT5G17490), full length (Arabidopsis)
